Reference: PubChem BioAssay AID493014 (National Center for Advancing Translational Sciences (NCATS), 2011)
The list shows a part of the results. The main result of the screen is listed elsewhere. These columns were measured beside it and carry no call. Compounds called inactive in the main read-out are mostly missing here. The note in brackets gives the kind of curve behind each potency; many fits are weak.

Experiment: qHTS Assay to Find Inhibitors of Chronic Active B-Cell Receptor Signaling
Settings: ABC-DLBCL IkBa-CBG/CBR reporter, luminescence ratio (green luciferase fused to IkBa over red control in TMD8 lymphoma cells), 4 h
How it was run: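 Doxycycline induced both beetle luciferases in TMD8 lymphoma cells; IKK-driven degradation limits the IkappaBalpha-fused green signal, while red luminescence normalises for cell number and nonspecific effects. Compounds tested up to 46 uM, 4 hrs.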

[1] = measured here: CBR red luminescence, cell number

SMILES	AC50 [1]	AC50 (measured here: IkBa-CBG green luminescence)
COc1ccc(-c2c(-c3ccc(OCC(=O)NN)cc3O)n[nH]c2C(F)(F)F)cc1	11.6 µM [falling, partial curve]	
CCOC(=O)/C(=N\Nc1ccc(C(C)=O)cc1)c1csc(Nc2ccccc2)n1	7.31 µM [rising, single point]	
Cc1ccc(-n2nnnc2SCC(=O)N2c3ccccc3NC(=O)C2(C)C)cc1	6.31 µM [rising, single point]	
Cc1cc(C(=O)Nc2ccc(N3CCCCC3)cc2)no1	7.08 µM [falling, partial curve]	
CC(C)OP(=O)(OC(C)C)C(Nc1ccccc1)c1ccc2c(c1)OCO2 (stereo not drawn)	18.4 µM [falling, single point]	
Nc1cc(N)nc(SCC(=O)c2ccccc2)n1	35.5 µM [falling, single point]	
Cc1csc(=O)n1CCC(=O)OCC(=O)Nc1ccc(S(N)(=O)=O)cc1	0.366 µM [rising, full curve, poor fit]	
Cc1cc(Cn2nnc(-c3ccc(Br)cc3)n2)cc(C)c1O	16.4 µM [rising, partial curve, poor fit]	
COc1cccc(/C=N/NC(=O)c2ccc(-c3ccccc3)cc2)c1O	2.59 µM [falling, partial curve]	
C[C@H](NC(=O)c1nc[nH]c1C(=O)N1CCN(c2ccccc2)CC1)C(=O)OCc1ccccc1		3.55 µM [rising, full curve, poor fit]
Cc1cccc(C)c1NC(=S)N(CCN1CCCCCC1)Cc1ccco1	35.5 µM [falling, single point]	
CCC(=O)NC(=S)Nc1cccc(NC(=O)c2ccc(Cl)cc2Cl)c1	10 µM [falling, partial curve, poor fit]	
COc1cc(OC)c(C(=O)Nc2ccc(C(=O)c3ccccc3)cc2)cc1OC	5.01 µM [rising, partial curve, poor fit]	
O=C(Cc1cccs1)N1CCC(c2nc3c(nnn3Cc3ccccc3Cl)c(=O)[nH]2)CC1	2 µM [falling, full curve, poor fit]	
Cc1ccc2c(c1)N(C(=O)CCC(=O)N1CCC(C(N)=O)CC1)CC(C)O2 (stereo not drawn)	0.112 µM [falling, full curve, poor fit]	
Cc1cc2c(cc1S(=O)(=O)N1CC(C)CC(C)C1)OCC(=O)N2 (stereo not drawn)	0.501 µM [rising, full curve, poor fit]	
COc1ccc(CNC(=O)CN(C(=O)CCC(=O)Nc2ccccn2)c2ccc(C)cc2)cc1	22.4 µM [falling, partial curve, poor fit]	
COc1cccc(C2C=C(Nc3ccccc3)C(=O)N2c2ccccc2)c1 (stereo not drawn)	16.4 µM [falling, partial curve]	
COc1ccc(C2=CC3=C(Br)C(=O)C(C)(OC(=O)c4ccc(Cl)nc4)C(=O)C3=CO2)cc1 (stereo not drawn)	35.5 µM [rising, single point]	
CC(=O)Nc1ccc(Cl)c(-c2nc3ncccc3o2)c1	11.2 µM [rising, single point]	
Cc1cnc2cc(Cl)ccc2c1SCC(=O)O	2.82 µM [falling, single point]	

SMILES	AC50 [1]	AC50 (measured here: IkBa-CBG green luminescence)
CN(c1ccc(C(=O)Nc2ccccc2Sc2ccccc2)cc1)S(C)(=O)=O	11.2 µM [falling, single point]	
O=C(NN1C(=O)/C(=C/c2ccc(O)c(O)c2)SC1=S)c1ccccc1	35.5 µM [rising, single point]	
NC(=O)c1ccccc1NC(=O)c1ccc2c(c1)OCO2	17.8 µM [falling, single point]	
O=C(Nc1ccc(F)cc1)c1cnc(-c2ccccc2)nc1-c1ccccc1	3.16 µM [rising, single point]	
Cc1cc(NC(=O)c2cc3n(n2)C(C(F)(F)F)CC(c2ccco2)N3)n(-c2ccccc2)n1 (stereo not drawn)	23.1 µM [falling, partial curve, poor fit]	
COc1ccc(-c2nn(-c3ccccc3)cc2C(=O)NC(=S)N2CCOCC2)cc1OC	29.1 µM [rising, single point]	
CC1=C(C(=O)Nc2ccccc2)C(c2ccc[nH]2)n2ncnc2N1 (stereo not drawn)	6.51 µM [rising, single point]	
COc1ccc(C(=O)/C=C/C(=O)N(Cc2ccccc2)C(C(=O)NC2CCCCC2)c2ccncc2)c(O)c1 (stereo not drawn)	0.58 µM [falling, full curve, poor fit]	
O=C(Nc1cccc(Oc2ccc3c(c2)C(=O)NC3=O)c1)c1cccs1	18.4 µM [falling, single point]	
O=C(CCl)N1CCN(S(=O)(=O)c2ccc3c(c2)CCC3)CC1	9.2 µM [falling, partial curve]	
CN(CC(=O)Nc1ccc(Cl)c(Cl)c1)C1CCCCC1	15.8 µM [rising, single point]	
CC(C)(C)C(=O)Nc1cccc(-c2nc3ccccc3c(=O)o2)c1	14.1 µM [falling, partial curve, poor fit]	
CCCN1CCc2c(sc3nc(SC)n(-c4ccccc4)c(=O)c23)C1	35.5 µM [falling, single point]	
CN1c2ccccc2C(=O)/C(=C\Nc2ccc(F)cc2)S1(=O)=O	35.5 µM [falling, partial curve, poor fit]	
COc1cccc(NC(=O)c2cc3cccc(OC)c3o/c2=N\O)c1	1.58 µM [falling, partial curve, poor fit]	
CCOC(=O)C1=C(CC)Nc2ccccc2N=C1NC(=O)c1cccc(S(=O)(=O)N2CCOCC2)c1	25.9 µM [rising, single point]	
COc1ccc(C(=O)Nc2ccc(F)cc2F)cc1	11.6 µM [falling, partial curve, poor fit]	
COc1cc(/C=C(\C#N)C(=O)NC(C)C)ccc1OCc1ccc(C(=O)O)cc1	7.94 µM [falling, partial curve]	
COc1ccc(CN2C[C@H](Cc3ccccc3)[C@@H](CC(=O)Nc3ccccc3)C2=O)cc1	22.4 µM [falling, single point]	
O=C1CN(C(=O)COC(=O)[C@@H]2CC(O)CN2S(=O)(=O)c2ccc(Cl)cc2)c2ccccc2N1 (stereo partly drawn)	4.11 µM [rising, partial curve, poor fit]	
O=C(NC(=S)NCCC1=CCCCC1)c1ccccc1Br	0.1 µM [rising, full curve, poor fit]	

Of the compounds above, 2 contain a CF3 group.
SMILES	AC50 [1]	AC50 (measured here: IkBa-CBG green luminescence)
COc1ccc(-c2c(-c3ccc(OCC(=O)NN)cc3O)n[nH]c2C(F)(F)F)cc1	11.6 µM [falling, partial curve]	
Cc1cc(NC(=O)c2cc3n(n2)C(C(F)(F)F)CC(c2ccco2)N3)n(-c2ccccc2)n1 (stereo not drawn)	23.1 µM [falling, partial curve, poor fit]	

Continued:

SMILES	AC50 [1]	AC50 (measured here: IkBa-CBG green luminescence)
O=C(Cc1ccccc1)NCC(=O)OCC(=O)c1ccc(Cl)c([N+](=O)[O-])c1	29.1 µM [falling, single point]	
Cc1ccc(C(=O)OCc2nc3ccsc3c(=O)[nH]2)o1	20.6 µM [falling, partial curve]	
COc1ncnc2c1sc1nc(-c3ccccc3)c3c(c12)CCCC3	0.58 µM [rising, full curve, poor fit]	
Nc1nc(CSc2ncn(-c3ccccc3)n2)cs1	18.4 µM [falling, single point]	
FC(F)Sc1ccc(NC(=S)N2CCN(c3ccccn3)CC2)cc1	15.8 µM [falling, single point]	
O=C(Cc1cn(Cc2cccc(Cl)c2)c2ccccc12)N1CCCCCC1	2.31 µM [falling, partial curve, poor fit]	
CCOC(=O)c1sc(NC(=O)c2ccc(S(=O)(=O)N(CC)CC)cc2)nc1C	1.46 µM [falling, full curve]	
COc1ccc(NC(=O)c2sc(N3CCOCC3)nc2-c2ccccc2)c(OC)c1	8.2 µM [falling, partial curve]	
COc1ccc(CCNC(=O)C2Cc3ccccc3C(=O)O2)cc1 (stereo not drawn)	11.2 µM [falling, single point]	
COc1ccc(C)cc1NS(=O)(=O)c1ccc2c(c1)NC(=O)C(C)S2 (stereo not drawn)	35.5 µM [falling, single point]	
COc1ccc([C@H]2CC(=O)C=C(c3ccc(-c4ccccc4)c(F)c3)C2)cc1OC	0.58 µM [rising, full curve, poor fit]	
COc1cccc(N2CCN(C(=O)c3cc(-c4ccc(F)cc4)[nH]c3C)CC2)c1	3.55 µM [falling, full curve, poor fit]	
O=C(O)/C(=C\c1ccccc1OC(F)F)Sc1nnc(-c2ccc(F)cc2)o1	7.94 µM [falling, partial curve, poor fit]	
CCOCCCNC(=O)c1cc2c(s1)-c1ccccc1SC2	12.6 µM [falling, single point]	
N/C(=N\OC(=O)Nc1ccc(Cl)cc1)c1ncc(C(F)(F)F)cc1Cl	0.651 µM [rising, full curve, poor fit]	
Cc1ccc2nc(-c3cccc(N)c3)[nH]c2c1	10.3 µM [falling, partial curve]	
COc1ccc(/C=C/C(=O)c2ccc3c4c(cccc24)CC3)cc1OC	9.2 µM [falling, partial curve]	
N=c1c2c(-c3ccccc3)c(-c3ccccc3)n(Cc3ccccc3)c2ncn1CCCn1ccnc1	5.62 µM [falling, full curve, poor fit]	
COc1ccc(CCNC(=O)CCNC(=O)N2CC(=O)Nc3ccccc32)cc1OC	3.16 µM [rising, single point]	
O=C(O)CC1(CC(=O)Nc2ccc3ccccc3n2)CCCCC1	15.8 µM [falling, single point]	
CC(C)c1ccc(/C=C2\NC(=O)NC2=O)cc1	6.31 µM [rising, full curve, poor fit]	
